The source of these data is PubChem BioAssay AID296 (DTP/NCI, 2004).

The list shows only some results of the screen, not a fair sample: it is rich in T/C values a quarter to a half above the control, in often repeated tests (any T/C) and in doses without a T/C. Other doses and runs of a compound stand elsewhere. T/C gives the treated animals as a percentage of the vehicle group. Schedules are NCI's codes, taken here to give the interval after Q, in days (D) or hours (H), and the number of doses after X. Some T/C values are negative: the treated tumours shrank. Some doses were run more than once; the values are given in rising order. Some T/C values carry the count of animals alive at the toxicity check (mostly the fifth day); without a count, all were alive then. Some doses have a count of surviving animals in place of a T/C: the source holds a T/C of zero for them, seemingly a mark for toxic or unscored doses. Counts of survivors are from the toxicity check (mostly the fifth day) where no day follows; animals may have died later.

For this assay, the system named is MX-1 breast xenograft, nude mice, tumor weight T/C. Put plainly: NCI In Vivo Anticancer Drug Screen. Data for tumor model Human Mammary Carcinoma MX-1 Xenograft (intrarenal inoculation) in NU/NU Swiss (nude) mice. The note with it: T/C endpoint: mean tumor weight change, higher T/C = larger tumour; for T/C: evaluated on day 11. An outline of the steps: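 Activity is given as a ratio, with each measurement in the compound-treated arm divided by the matching measurement in vehicle-dosed controls. Tumour size or survival serves as the measured parameter.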

[1] abbreviates: dose: 60.0 mg/kg/injection, schedule: Q01DX010 (sc), vehicle: Klucel (hydroxypropylcellulose) (HPC).
Setting [2] is: dose: 120.0 mg/kg/injection, schedule: Q01DX010 (sc), vehicle: Klucel (hydroxypropylcellulose) (HPC).
Where [3] appears, read: dose: 50.0 mg/kg/injection, schedule: Q04DX003 (sc), vehicle: saline.
[4] abbreviates: dose: 100.0 mg/kg/injection, schedule: Q04DX003 (sc), vehicle: saline.
Setting [5] is: dose: 150.0 mg/kg/injection, schedule: Q04DX003 (sc), vehicle: saline with Tween-80.

On to `OC(CBr)C(O)C(O)C(O)CBr` (centres undefined), for which the survivor count is 1 of 3 on day 11 (dose: 15.0 mg/kg/injection, schedule: Q01DX010 (sc), vehicle: Klucel (hydroxypropylcellulose) (HPC)); 1 of 3 on day 11 under setting [1]; 0 of 3 on day 11 and 1 of 2 on day 11 under setting [2]; 0 of 3 on day 11 (dose: 240.0 mg/kg/injection, schedule: Q01DX010 (sc), vehicle: Klucel (hydroxypropylcellulose) (HPC)); 0 of 3 on day 11 (dose: 480.0 mg/kg/injection, schedule: Q01DX010 (sc), vehicle: Klucel (hydroxypropylcellulose) (HPC)); 0 of 3 on day 11 (dose: 1600.0 mg/kg/injection, schedule: Q01DX010 (sc), vehicle: Klucel (hydroxypropylcellulose) (HPC)). Also, the T/C under setting [1] is -84, -29, -23 % of control and the T/C under setting [2] is -61 % of control [2 of 2 alive on day 11].
Take `CCOC(=O)C(CC(C)C)NC(=O)C(N)Cc1ccc(N(CCCl)CCCl)cc1` (centres undefined): the survivor count reads like this: (dose: 60.0 mg/kg/injection, schedule: Q04DX003 (sc), vehicle: water) 2 of 6 on day 11; (dose: 120.0 mg/kg/injection, schedule: Q04DX003 (sc), vehicle: water) 0 of 6 on day 11 and 1 of 6 on day 11.
Turning to `C1OC1C1CO1` (centres undefined), the T/C (dose: 12.5 mg/kg/injection, schedule: Q04DX003 (sc), vehicle: saline) is reported as -81, 43, 55, 65, 92 % of control; the T/C (dose: 25.0 mg/kg/injection, schedule: Q04DX003 (sc), vehicle: saline) is listed as -100, 3, 19, 27, 86 % of control; the T/C under setting [3] is -87 [4 of 6 alive on day 11], -43, 45 % of control [5 of 6 alive on day 11]. The survivor count is, setting by setting: under setting [3], 1 of 6 on day 11 and 2 of 6 on day 11; (dose: 100.0 mg/kg/injection, schedule: Q01DX010 (sc), vehicle: saline) 0 of 3 on day 11 and 0 of 6 on day 11; under setting [4], 0 of 6 on day 11; (dose: 100.0 mg/kg/injection, schedule: Q04DX003 (sc), vehicle: suspension in saline) 0 of 6 on day 11.
Turning to `CO[C@H]1C[C@](C)(O)Cc2cc3c(c(O)c21)C(=O)c1c(O)cc2c(c1C3=O)O[C@@H]1O[C@@]2(C)[C@H](O)[C@@H](N(C)C)[C@@H]1O`, the survivor count (dose: 25.0 mg/kg/injection, schedule: Q01DX010 (sc), vehicle: other) is 0 of 3 on day 11.
Consider `O=NN(CCCl)C(=O)NC1CCCCC1`, for which the T/C is 127 % of control (dose: 12.5 mg/kg/injection, schedule: Q04DX003 (sc), vehicle: Klucel (hydroxypropylcellulose) (HPC)) and 126 % of control [2 of 2 alive on day 11] (dose: 16.0 mg/kg/injection, schedule: Q01DX010 (sc), vehicle: saline with Tween-80). In addition, the survivor count reads like this: (dose: 64.0 mg/kg/injection, schedule: Q01DX010 (sc), vehicle: saline with Tween-80) 1 of 2 on day 11; (dose: 64.0 mg/kg/injection, schedule: Q04DX003 (sc), vehicle: Klucel (hydroxypropylcellulose) (HPC)) 3 of 6 on day 11.
In the case of `NC(=O)c1cn(C2OC(CO)C(O)C2O)c2ncnc(N)c12` (centres undefined), where the note is “dose: 12.0 mg/kg/injection, schedule: Q04DX003 (sc), vehicle: saline”, the survivor count was 1 of 6 on day 11.
Take `O=c1n(CC2CO2)c(=O)n(CC2CO2)c(=O)n1CC1CO1` (centres undefined): the T/C (dose: 18.75 mg/kg/injection, schedule: Q04DX003 (sc), vehicle: saline with Tween-80) is given as 26, 47, 78, 82 % of control; the T/C (dose: 37.5 mg/kg/injection, schedule: Q04DX003 (sc), vehicle: saline with Tween-80) is listed as 16, 39, 69, 122 % of control; the T/C (dose: 75.0 mg/kg/injection, schedule: Q04DX003 (sc), vehicle: saline with Tween-80) was -15, 16, 17 [5 of 6 alive on day 11], 80 % of control; the T/C under setting [5] was 6 [5 of 6 alive on day 11] and 65 % of control. The survivor count under setting [4] is on record as 3 of 6 on day 11; the survivor count under setting [5] is 0 of 4 on day 11 and 0 of 6 on day 11; the survivor count (dose: 200.0 mg/kg/injection, schedule: Q04DX003 (sc), vehicle: saline) is 0 of 6 on day 11; the survivor count (dose: 300.0 mg/kg/injection, schedule: Q04DX003 (sc), vehicle: saline with Tween-80) is reported as 0 of 6 on day 11; the survivor count (dose: 600.0 mg/kg/injection, schedule: Q04DX003 (sc), vehicle: saline with Tween-80) was 0 of 6 on day 11; the survivor count (dose: 1200.0 mg/kg/injection, schedule: Q04DX003 (sc), vehicle: saline with Tween-80) was 0 of 6 on day 11.
In the case of `c1ccc2c(c1)[As]=c1ccccc1=[As]2` (centres undefined), where the note is “dose: 1200.0 mg/kg/injection, schedule: Q04DX003 (sc), vehicle: saline”, the survivor count was 1 of 6 on day 11.
